In article PMC10392983:
These are yes or no findings as the source states them, for the method shown. Some binding calls cover weakened binding; strength is not graded here.

Amino acid sequences for entries named in this document (tags omitted).
UniProt P48736: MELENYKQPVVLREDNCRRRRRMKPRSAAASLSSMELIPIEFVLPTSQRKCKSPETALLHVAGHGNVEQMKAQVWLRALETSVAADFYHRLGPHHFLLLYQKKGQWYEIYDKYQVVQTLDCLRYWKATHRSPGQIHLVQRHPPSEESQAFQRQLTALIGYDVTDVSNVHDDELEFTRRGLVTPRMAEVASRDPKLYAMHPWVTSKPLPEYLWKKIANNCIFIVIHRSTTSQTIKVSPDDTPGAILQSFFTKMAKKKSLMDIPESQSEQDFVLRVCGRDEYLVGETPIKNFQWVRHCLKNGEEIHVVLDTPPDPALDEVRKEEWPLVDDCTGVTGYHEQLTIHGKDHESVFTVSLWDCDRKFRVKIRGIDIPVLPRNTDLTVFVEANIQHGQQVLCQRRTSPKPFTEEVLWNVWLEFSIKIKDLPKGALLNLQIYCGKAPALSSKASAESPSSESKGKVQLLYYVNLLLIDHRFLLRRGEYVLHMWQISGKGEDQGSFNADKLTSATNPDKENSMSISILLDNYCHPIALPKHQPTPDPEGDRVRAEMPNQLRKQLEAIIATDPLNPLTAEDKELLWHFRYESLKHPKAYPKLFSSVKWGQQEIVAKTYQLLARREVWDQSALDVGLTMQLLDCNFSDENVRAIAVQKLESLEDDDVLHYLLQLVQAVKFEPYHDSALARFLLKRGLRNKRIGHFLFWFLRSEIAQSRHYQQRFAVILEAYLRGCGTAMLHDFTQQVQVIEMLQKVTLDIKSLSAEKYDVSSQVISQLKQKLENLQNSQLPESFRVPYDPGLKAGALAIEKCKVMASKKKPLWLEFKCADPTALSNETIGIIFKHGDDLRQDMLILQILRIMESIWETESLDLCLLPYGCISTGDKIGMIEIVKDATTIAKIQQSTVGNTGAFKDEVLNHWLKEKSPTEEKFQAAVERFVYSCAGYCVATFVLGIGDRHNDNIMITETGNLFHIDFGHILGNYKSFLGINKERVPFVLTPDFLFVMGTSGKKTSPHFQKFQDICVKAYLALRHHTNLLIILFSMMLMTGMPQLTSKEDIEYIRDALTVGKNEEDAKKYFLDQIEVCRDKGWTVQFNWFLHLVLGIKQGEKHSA

Legend:
[1] = target: T1, p101 regulatory subunit of PI3Kγ (Sus scrofa (porcine)) (UniProt O02696); experiment: co-purification (nickel affinity, streptavidin affinity, size-exclusion chromatography); co-expression in Sf9; His10-2x Strep tag on p84 or p101 only; p110γ untagged
T1 sequence: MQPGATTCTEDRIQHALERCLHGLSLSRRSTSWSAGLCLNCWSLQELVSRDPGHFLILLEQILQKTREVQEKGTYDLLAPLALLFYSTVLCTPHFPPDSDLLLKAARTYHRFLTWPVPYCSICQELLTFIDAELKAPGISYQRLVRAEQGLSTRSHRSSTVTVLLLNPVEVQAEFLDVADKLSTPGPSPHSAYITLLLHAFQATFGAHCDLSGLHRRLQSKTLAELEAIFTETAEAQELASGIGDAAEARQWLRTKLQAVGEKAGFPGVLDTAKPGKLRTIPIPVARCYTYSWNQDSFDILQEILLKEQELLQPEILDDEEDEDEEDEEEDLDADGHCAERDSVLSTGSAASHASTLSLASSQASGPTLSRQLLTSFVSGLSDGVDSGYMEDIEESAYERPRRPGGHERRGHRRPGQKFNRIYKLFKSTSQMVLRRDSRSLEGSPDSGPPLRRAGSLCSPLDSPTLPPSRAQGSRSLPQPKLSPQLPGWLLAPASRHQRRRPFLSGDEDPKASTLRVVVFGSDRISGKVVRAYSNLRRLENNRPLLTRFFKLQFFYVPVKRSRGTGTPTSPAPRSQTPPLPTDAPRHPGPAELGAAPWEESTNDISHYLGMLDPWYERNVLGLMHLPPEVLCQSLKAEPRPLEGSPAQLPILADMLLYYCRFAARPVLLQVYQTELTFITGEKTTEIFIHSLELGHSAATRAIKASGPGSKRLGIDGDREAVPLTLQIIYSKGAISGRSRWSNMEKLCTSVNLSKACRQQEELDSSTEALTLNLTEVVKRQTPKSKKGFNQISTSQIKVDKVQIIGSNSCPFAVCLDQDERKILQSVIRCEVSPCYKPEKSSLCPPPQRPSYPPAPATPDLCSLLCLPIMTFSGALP

[2] = target: T2, p84 regulatory subunit of PI3Kγ (mouse) (UniProt Q3U6Q4); experiment: as above
T2 sequence: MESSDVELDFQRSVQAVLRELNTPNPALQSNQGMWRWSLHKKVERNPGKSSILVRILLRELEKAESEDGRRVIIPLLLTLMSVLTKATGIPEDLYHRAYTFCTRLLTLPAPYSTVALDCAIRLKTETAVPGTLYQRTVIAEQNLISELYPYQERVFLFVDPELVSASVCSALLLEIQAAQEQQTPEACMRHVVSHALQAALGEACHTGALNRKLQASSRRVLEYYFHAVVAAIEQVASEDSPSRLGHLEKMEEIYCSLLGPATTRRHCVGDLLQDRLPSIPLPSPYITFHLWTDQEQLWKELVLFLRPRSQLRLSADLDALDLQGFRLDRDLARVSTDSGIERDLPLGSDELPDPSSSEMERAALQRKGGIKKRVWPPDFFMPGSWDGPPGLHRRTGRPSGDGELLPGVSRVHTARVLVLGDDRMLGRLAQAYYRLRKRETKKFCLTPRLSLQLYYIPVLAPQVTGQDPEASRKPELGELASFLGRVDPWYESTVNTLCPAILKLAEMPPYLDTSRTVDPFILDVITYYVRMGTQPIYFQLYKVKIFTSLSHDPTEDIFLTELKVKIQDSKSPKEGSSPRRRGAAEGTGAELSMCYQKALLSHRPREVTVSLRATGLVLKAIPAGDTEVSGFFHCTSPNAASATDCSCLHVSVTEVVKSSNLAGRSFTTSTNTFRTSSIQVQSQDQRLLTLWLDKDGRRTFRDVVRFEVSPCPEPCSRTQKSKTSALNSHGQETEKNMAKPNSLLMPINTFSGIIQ

p110γ, untagged, co-expressed with a tagged regulatory subunit (from UniProt P48736 1-1102) (enzyme)
binding [1]: binds
binding [2]: binds
